No constants are given. Whether binding was seen depends on the method and setting. In cells and extracts the contact can be indirect. Binding can be weak; no strength is given. Where a sequence is shown, tags or fusion partners need not be part of it.
Legend:
Myc-tagged DDX50 = target: T1, Myc-tagged DDX50 (UniProt Q9BQ39); assay: pull-down
T1 sequence: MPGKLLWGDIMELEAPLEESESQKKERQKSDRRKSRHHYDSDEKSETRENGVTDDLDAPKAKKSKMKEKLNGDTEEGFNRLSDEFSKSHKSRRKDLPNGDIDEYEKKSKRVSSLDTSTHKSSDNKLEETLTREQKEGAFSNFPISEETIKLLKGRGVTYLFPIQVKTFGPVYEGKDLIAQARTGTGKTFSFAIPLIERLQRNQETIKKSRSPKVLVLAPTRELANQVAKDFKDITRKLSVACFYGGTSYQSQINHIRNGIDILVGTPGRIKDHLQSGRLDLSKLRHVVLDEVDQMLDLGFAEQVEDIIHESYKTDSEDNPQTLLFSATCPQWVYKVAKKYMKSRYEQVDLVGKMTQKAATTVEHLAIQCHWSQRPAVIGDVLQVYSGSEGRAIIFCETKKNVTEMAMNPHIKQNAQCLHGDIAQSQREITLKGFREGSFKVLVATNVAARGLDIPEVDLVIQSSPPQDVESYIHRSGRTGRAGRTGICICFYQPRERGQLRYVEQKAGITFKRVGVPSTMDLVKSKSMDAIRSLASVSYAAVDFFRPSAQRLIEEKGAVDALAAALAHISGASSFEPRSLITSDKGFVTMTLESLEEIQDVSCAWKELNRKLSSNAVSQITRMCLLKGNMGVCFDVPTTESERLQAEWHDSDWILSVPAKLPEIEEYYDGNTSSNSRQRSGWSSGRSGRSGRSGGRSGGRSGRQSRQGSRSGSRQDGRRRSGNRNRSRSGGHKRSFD

Myc-tagged DDX56 = target: T2, Myc-tagged DDX56 (UniProt Q9NY93); assay: pull-down
T2 sequence: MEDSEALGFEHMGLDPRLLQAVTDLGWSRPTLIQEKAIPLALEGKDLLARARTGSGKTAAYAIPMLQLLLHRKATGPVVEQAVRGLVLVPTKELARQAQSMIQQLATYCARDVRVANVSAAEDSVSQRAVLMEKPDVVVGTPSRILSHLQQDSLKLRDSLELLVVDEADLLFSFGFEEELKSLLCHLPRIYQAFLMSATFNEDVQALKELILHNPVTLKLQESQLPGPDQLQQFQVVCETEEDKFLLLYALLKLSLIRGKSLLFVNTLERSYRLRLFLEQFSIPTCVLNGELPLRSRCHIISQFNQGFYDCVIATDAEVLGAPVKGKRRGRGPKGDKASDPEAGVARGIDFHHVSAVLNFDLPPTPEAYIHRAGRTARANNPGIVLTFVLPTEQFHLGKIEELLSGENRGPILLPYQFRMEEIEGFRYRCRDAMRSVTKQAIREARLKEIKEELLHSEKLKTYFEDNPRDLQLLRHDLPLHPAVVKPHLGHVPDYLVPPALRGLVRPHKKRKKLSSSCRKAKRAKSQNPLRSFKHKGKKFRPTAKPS

recombinant FLAG-tagged CK1γ2 (enzyme)
binding (Myc-tagged DDX50): binds
binding (Myc-tagged DDX56): binds
